Laboratory results: US9408848B2, “Fluorescent CDK inhibitors for treatment of cancer” (Georgetown University, priority 2008, dated 2016)
Entries after “also recorded” stand apart in the source; their conditions may differ.

Test system: human breast tissue
Assay: Binding ability on human breast tissue (two photon microscope)
Conditions: 10 uM, 1 h, compared to dansyl ethylenediamine

## CC(C)[C@H](CO)Nc1nc(Nc2ccc(C(=O)NCCNS(=O)(=O)c3cccc4c(N(C)C)cccc34)c(Cl)c2)c2ncn(C(C)C)c2n1 [VMY-1-103, 2-Chloro-N-[2-(5-dimethylamino-naphthalene-1-sulfonylamino)-ethyl]-4-[2-(1-hydroxymethyl-2-methyl-propylamino)-9-isopropyl-9H-purin-6-ylamino]-benzamide]
  binding ability on human breast tissue: strong binding ability; also recorded: strong affinity to binding to breast tissues compared to fluorophore alone
